Values from PubChem BioAssay AID1053208 (Peter MacCallum Cancer Centre, 2014).
This is an unselected part of about 17,000 reagents. In the full data, 788 (4.7%) got an active call. 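Calls rest on z-score classes alone; an extra cut-off of viability at most 70% of control was not applied to them.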 Entries without a mark were called inactive. A reagent listed more than once was tested more than once; the source does not tell the runs apart. Further read-outs or replicates are left out here.

Assay: 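Find knock-downs that sensitise mouse osteosarcoma cells to doxorubicin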 (primary screen)
Cell system: mouse osteosarcoma cells, early-passage culture from an engineered mouse model of fibroblastic bone tumour
Reagent: siRNA pool against mouse genes, 40 nM
Timing: about 120 h (48 h before drug, then 72 h with drug)
Treatment: doxorubicin 100 nM for 72 h, roughly 30-40% inhibitory dose
Read-out: 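Luminescent ATP signal taken as viability with or without 100 nM doxorubicin for 72 h; mean of two wells set against non-targeting siRNA and turned into robust z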
Scale: viability z-score with doxorubicin: higher = more viable cells under doxorubicin; viability z-score without drug: higher = more viable cells with knock-down alone; z-score of drug to no-drug ratio: higher = less drug sensitisation by knock-down
Active means: 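Called active if knock-down leaves viability unchanged without drug (z within -2 to 2) but lowers it with doxorubicin (z at or under -2)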

| Target gene | combined z-score class | viability z-score with doxorubicin | viability z-score without drug | z-score of drug to no-drug ratio |
| --- | --- | --- | --- | --- |
| Serhl (serine hydrolase-like) | no change with or without drug | 0 | 1.18 | -0.67 |
| Mmp13 (matrix metallopeptidase 13) | no change with or without drug | -0.67 | -0.17 | -0.45 |
| Ifi27l2b (interferon, alpha-inducible protein 27 like 2B) | no change with or without drug | 0 | 1.18 | -0.67 |
| Bcl7c (B cell CLL/lymphoma 7C) | no change with or without drug | 0.9 | -0.17 | 1.24 |
| Ralgps1 (Ral GEF with PH domain and SH3 binding motif 1) | no change with or without drug | -1.8 | 0.17 | -1.91 |
| Slc25a12 | low cell count with doxorubicin only (active) | -2.14 | 0.17 | -2.25 |
| Fkbp3 (FK506 binding protein 3) | no change with or without drug | -0.45 | 0.51 | -0.67 |
| Magea13 (MAGE family member A13) | no change with or without drug | -0.79 | -0.17 | -0.56 |
| Snai3 (snail family zinc finger 3) | no change with or without drug | 1.8 | 1.01 | 1.24 |
| Xpo5 (exportin 5) | no change with or without drug | 0.22 | -0.17 | 0.45 |
| Prpf6 (pre-mRNA splicing factor 6) | no change with or without drug | 1.8 | 0.17 | 1.91 |
| Slc27a2 | no change with or without drug | 0 | 1.18 | -0.67 |
| Smg9 (SMG9 nonsense mediated mRNA decay factor) | no change with or without drug | -0.9 | -1.18 | 0 |
| Cd48 (CD48 antigen) | no change with or without drug | -1.24 | -0.51 | -0.9 |
| 1810030O07Rik (RIKEN cDNA 1810030O07 gene) | high cell count with and without drug | 2.36 | 2.19 | 0.9 |
| Foxj2 (forkhead box J2) | no change with or without drug | -0.22 | 0.84 | -0.67 |
| Cyp2j5 (cytochrome P450, family 2, subfamily j, polypeptide 5) | no change with or without drug | -0.56 | 1.01 | -1.12 |
| Tom1l2 (target of myb1-like 2 (chicken)) | low cell count with doxorubicin only (active) | -2.47 | -0.84 | -2.02 |
| Or1e26 (olfactory receptor family 1 subfamily E member 26) | no change with or without drug | 0.34 | -0.51 | 0.79 |
| Pira6 (paired-Ig-like receptor A6) | no change with or without drug | 0.56 | -0.84 | 1.35 |
| Or51q1c (olfactory receptor family 51 subfamily Q member 1C) | no change with or without drug | 0.67 | -0.34 | 1.12 |
| Pxn (paxillin) | no change with or without drug | 0 | -0.84 | 0.67 |
| Tll2 (tolloid-like 2) | no change with or without drug | 0.22 | 0 | 0.34 |
| Plin5 (perilipin 5) | no change with or without drug | -1.57 | 0.84 | -2.02 |
| Col1a1 (collagen, type I, alpha 1) | no change with or without drug | -0.56 | 0.17 | -0.56 |
| Pus7 (pseudouridylate synthase 7) | no change with or without drug | 0 | -0.51 | 0.45 |
| Stk40 (serine/threonine kinase 40) | no change with or without drug | -0.34 | -1.18 | 0.56 |
| Stk40 (serine/threonine kinase 40) | no change with or without drug | -0.56 | 0.51 | -0.79 |
| Slc39a8 | no change with or without drug | 0 | 0.34 | -0.11 |
| Ptpn21 (protein tyrosine phosphatase, non-receptor type 21) | no change with or without drug | 0.45 | 0.17 | 0.45 |
| Gask1a (golgi associated kinase 1A) | no change with or without drug | 0.22 | 0.17 | 0.22 |
| Il17rb (interleukin 17 receptor B) | no change with or without drug | 0.22 | -1.18 | 1.24 |
| Vmn1r181 (vomeronasal 1 receptor 181) | no change with or without drug | -1.35 | -1.69 | -0.22 |
| Ubl5 (ubiquitin-like 5) | low cell count with doxorubicin only (active) | -2.02 | -1.35 | -1.24 |
| Adgrg3 (adhesion G protein-coupled receptor G3) | no change with or without drug | 1.01 | 1.85 | -0.11 |
| Nek5 (NIMA (never in mitosis gene a)-related expressed kinase 5) | no change with or without drug | -1.46 | -1.52 | -0.45 |
| Spsb4 (splA/ryanodine receptor domain and SOCS box containing 4) | no change with or without drug | -0.34 | -0.84 | 0.34 |
| Or6c5 (olfactory receptor family 6 subfamily C member 5) | no change with or without drug | 1.57 | 1.52 | 0.67 |
| Cdcp3 (CUB domain containing protein 3) | high cell count without drug only | 0 | 2.02 | -1.12 |
| C1s1 (complement component 1, s subcomponent 1) | no change with or without drug | 1.01 | 0.84 | 0.56 |
| Dram1 (DNA-damage regulated autophagy modulator 1) | no change with or without drug | -0.9 | -0.17 | -0.79 |
| Stam2 | no change with or without drug | -0.22 | 1.35 | -1.01 |
| Ankrd24 (ankyrin repeat domain 24) | no change with or without drug | 0.79 | 0.84 | 0.34 |
| Serpina1e (serine (or cysteine) peptidase inhibitor, clade A, member 1E) | no change with or without drug | -0.67 | 0.51 | -0.9 |
| Slc14a2 | no change with or without drug | 0.22 | -0.34 | 0.56 |
| Ercc1 | no change with or without drug | -0.45 | 0 | -0.34 |
| Tyro3 (TYRO3 protein tyrosine kinase 3) | no change with or without drug | -1.12 | 0.17 | -1.12 |
| Isoc1 (isochorismatase domain containing 1) | no change with or without drug | 0.9 | 0.67 | 0.56 |
| Gdf10 (growth differentiation factor 10) | no change with or without drug | -0.22 | -0.51 | 0.22 |
| Prkg2 (protein kinase, cGMP-dependent, type II) | high cell count with doxorubicin only | 2.25 | -1.35 | 3.71 |
| Tm4sf5 (transmembrane 4 superfamily member 5) | no change with or without drug | -1.57 | -0.67 | -1.12 |
| Dera (deoxyribose-phosphate aldolase) | no change with or without drug | 1.12 | 1.01 | 0.56 |
| Os9 (amplified in osteosarcoma) | no change with or without drug | 0.9 | 1.35 | 0.11 |
| Ddx19a (DEAD box helicase 19a) | no change with or without drug | 0 | 0.34 | -0.11 |
| Uevld (UEV and lactate/malate dehyrogenase domains) | no change with or without drug | 0 | 0.17 | 0 |
| Donson (downstream neighbor of SON) | high cell count without drug only | -0.9 | 2.36 | -2.14 |
| Eml6 (echinoderm microtubule associated protein like 6) | no change with or without drug | -0.11 | 0.34 | -0.22 |
| Vmn1r192 (vomeronasal 1 receptor 192) | no change with or without drug | 0.56 | 0.34 | 0.45 |
| Or8c15 (olfactory receptor family 8 subfamily C member 15) | no change with or without drug | 0.79 | 0.84 | 0.34 |
| Sh3bgrl (SH3-binding domain glutamic acid-rich protein like) | no change with or without drug | 0 | -1.35 | 1.12 |
| Vwa7 (von Willebrand factor A domain containing 7) | no change with or without drug | 0.56 | 1.18 | -0.11 |
| Rflna (refilin A) | no change with or without drug | 0.45 | 0.51 | 0.22 |
| Trim44 (tripartite motif-containing 44) | no change with or without drug | 0.9 | -0.84 | 1.69 |
